# Screening data, single-dose tests

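Assay of Toxoplasma gondii numbers, read through their beta-galactosidase reporter with a colour substrate. Compounds at 10 µM. Higher reads as fewer parasites (inferred from which compounds were picked for retests). Of about 67,000 compounds tested this way, about 260 (0.38%) reached 50% or more in at least one test.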

Each number is a percent effect as filed.
The record does not define 0% and 100%; most values in the screen are far below 50% and negative numbers occur (in some assays of this library far below -100).
This is an unselected part of the compounds tested.

With COCCN(CCOC)S(=O)(=O)N(C)Cc1ccncc1 the screen gave -5.042%.
With CCC(=O)N1CCC2(CC1)CN(CCO)Cc1ccccc12.O=C(O)C(F)(F)F the screen gave 8.697%.
With CC(C)C(=O)N1CCCC([C@@H]2C[C@H](C(F)F)n3ncnc3N2)C1 (some centres undefined) the screen gave 18.55%.
With O=C(CCc1cc(Cl)no1)N1CCC(c2cc3ncccc3cn2)CC1 the screen gave -0.1895%.
With O=C(C1CCCCN1Cc1nc(-c2ccco2)no1)N1CCCC1 (centres undefined) the screen gave 5.708%.
With COCC1CN(C(=O)Nc2ccc(Cl)cc2Cl)CCO1 (centres undefined) the screen gave 1.551%.
With COc1ccc(Cl)cc1NC(=O)CCC1CCCN(Cc2ncon2)C1 (centres undefined) the screen gave -5.676%.
With Cc1ccc(CN2CCN(CC(=O)Nc3ccc4nsnc4c3)CC2)o1 the screen gave 11.13%.
With Cc1nc(CCNC(=O)N2CCC(Cc3cnn(C)c3)C2)cs1 (centres undefined) the screen gave -1.659%.
With Cc1nc(C(=O)N2CCC(c3cc(CCO)n(C)n3)C2)co1 (centres undefined) the screen gave 1.472%.
With Cc1cccc(OCC(=O)N(C)C2CCN(CC3CCOC3)CC2)c1 (centres undefined) the screen gave -4.759%.
With COCC(=O)N1CCCC1c1ccc(C(=O)NCCN2CCCCC2)s1 (centres undefined) the screen gave 4.626%.
With Cc1ccccc1SC1CCN(C(=O)C2CNCC(=O)N2)CC1 (centres undefined) the screen gave -3.746%.
With COc1ccccc1-c1noc(CN2CCCC2Cn2cccn2)n1 (centres undefined) the screen gave -1.751%.
With [H][C@@]12COC[C@]1([H])[C@@H](OC)CN2C(=O)c1ccnnc1 the screen gave 0.8918%.
With CCOC(=O)N1CCC2(CCNC2)C1.Cl (centres undefined) the screen gave -6.842%.
With Cc1cc(CN2CCN(C(=O)NCCc3csc(C)n3)CC2)on1 the screen gave -19.4%.
With O=C(O)C(F)(F)F.O=C(O)C(F)(F)F.[H][C@@]12CCN(c3nncs3)C[C@@]1([H])O[C@@H](C(=O)Nc1cccnc1)C2 the screen gave -7.885%.
With CN(C(=O)CN1CCC(c2cc3ccccc3[nH]2)CC1)C(C)(C)C#N the screen gave 3.837%.
With Cc1noc(C)c1C(=O)NCC(c1ccc(F)cc1)N(C)C (centres undefined) the screen gave 0.1077%.
With Cn1cccc1C(=O)NCc1cn2c(n1)CN(CC1CCOCC1)CC2.O=C(O)C(F)(F)F the screen gave -2.51%.
With COc1cccc(F)c1-c1nc2c([nH]1)c(C1CC1)nn2C the screen gave 26.05%.
With CC(=O)N1CCc2ccc(S(=O)(=O)N3CCCCC3C)cc21 (centres undefined) the screen gave -7.107%.
With CCc1noc(CN(C)C(=O)COc2cccc(Cl)c2C)n1 the screen gave -5.367%.
With Cc1ccc(NC2CCN(C(=O)c3ccoc3C)CC2)nn1 the screen gave -46.42%.
With Cc1cccc(CN2CCCC3(CCN(CC4CCCO4)CC3)C2)n1.O=C(O)C(F)(F)F.O=C(O)C(F)(F)F (centres undefined) the screen gave 9.54%.
With [H][C@]12CC[C@]([H])(CN(S(C)(=O)=O)C1)N(CCC(=O)NCc1ccccc1F)C2 the screen gave -7.994%.
With Cc1ccc(-n2nnc(CC(=O)N3CCOCC3)c2C)cc1 the screen gave 17.23%.
With [H][C@]12CN(Cc3ccoc3)CCN1C[C@@H](c1ccccc1)[C@@H]2C(=O)NC the screen gave 16.36%.
With CC1(C)CN(C(=O)c2cnc(CN3CCCC3)s2)CC[C@]1(C)O the screen gave 27.76%.
With O=C(NCC1(O)CCOCC1)c1ccc(F)cc1 the screen gave 23.42%.
With NC(=O)c1cccc(CCNC(=O)N2Cc3ccccc3C2)c1 the screen gave 9.361%.
With COc1ccc(CN2CCC(c3cc(O)nc(C)n3)C2)c(F)c1 (centres undefined) the screen gave -5.717%.
With COCC1CN(Cc2ccccn2)Cc2cn(C)nc21.O=C(O)C(F)(F)F.O=C(O)C(F)(F)F.O=C(O)C(F)(F)F (centres undefined) the screen gave -10.22%.
With FC(F)(F)Oc1ccc(CN2CCCC(n3cncn3)C2)cc1 (centres undefined) the screen gave -12.02%.
With Cc1ccc(CNC(=O)C2c3c(ncn3C(C)C)CCN2S(C)(=O)=O)o1 (centres undefined) the screen gave 0.05394%.
With CCn1cc(CN2CCCN(C(=O)Cc3ccc(C)nc3)CC2)cn1 the screen gave 0.2953%.

Measurements from “University of Dundee, Small-Polar-MMV Screening Library” (2021), ChEMBL document CHEMBL3988442.